# Reference: patent publication US20160200830A1
# No constants are given. Whether binding was seen depends on the method and setting. A result given as binding can be weak or reduced; the word gives no strength.
# Target: monkey transferrin (monkey)
# Assay: SPR
row,Binder,binding
1,"sdAb A69433 (VHH, not shown: small tags and cut ends) VHH: QVKLEESGGGLVQAGGSLRLSCVASGNVFGIDAVGWYRQAPGKQRELVAATTTSGSSTNYADSVKGRFTISRDIAKNTVYLQMDSLKPEDTAVYYCYARPKQATLIRDDYWGQGTQVTVSS",binds
2,"sdAb A69447 (VHH, not shown: small tags and cut ends) VHH: QVKLEESGGGSVQAGGSLRLSCTGSGSIFPLNDMGWYRQAPGKQRELVATITRGGTTNYADSVKGRFTISRDSNAKNTVYLQMNSLKVEDTAVYYCNMDNRVGGSYWGQGTQVTVSS",binds
3,"sdAb A69449 (VHH, not shown: small tags and cut ends) VHH: QVQLVESGGGVVQAGGSLRLSCVASGSVFSIDAMGWYRQAPGNQRELVAAMTNAGSTNYADSVKGRFTISRDNAENTVYLQMNSLKPEDTAVYYCNARSKLIARINNPYEYWGQGTQVTVSS",binds
